# Laboratory results published in US12662521B2, “Engineered osteocalcins for treating sarcopenia” (The Trustees of Columbia University in the City of New York, priority 2020, dated 2026).
# At least one compound was matched to its structure with a doubt left.
# Tested on: Dexamethasone mice
# Assay: another recognized model of sarcopenia: dexamethasone delivered by pumps for 28 days, muscle mass and treadmill running
# Assay type: in vivo
# Parameters: dose or concentration left out as unconfirmed
# Details: dexamethasone by pumps for 28 days; osteocalcin also by pumps
smiles,measurement,value
"C[C@@H]1C[C@H]2[C@@H]3CCC4=CC(=O)C=C[C@]4(C)[C@@]3(F)[C@@H](O)C[C@]2(C)[C@@]1(O)C(=O)CO [dexamethasone, reference compound]",exercise capacity (ability to run on a treadmill),decreased
same,muscle mass,decreased muscle mass
